The other results are listed elsewhere or left out. The main result of the screen is listed elsewhere. These columns were measured beside it and carry no call. Most of these compounds were active or inconclusive in the main read-out, so they are no random draw. Words in brackets tell the shape of the fitted curve; partial curves, single points and poor fits give uncertain potencies.
Assay: A High-Content qHTS Against Drug Library for the Identification of Small Molecules that Inhibit DYT1 Early Onset Primary Dystonia-Associated Cell Pathology (AID 1645839)
Conditions: HEK293 Flp-In EGFP-delE TorsinA, punctate imaging, 48 h; measured here: cell count cytotoxicity
Outline: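 Cells were seeded and left for 24 h, then dosed with compound alongside tetracycline induction of mutant EGFP-TorsinA. They were incubated for 48 h, fixed in 4% paraformaldehyde, permeabilized and imaged for mislocalization (%pathology) and cell count.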

SMILES | AC50
Cc1nc2n(c(=O)c1CCN1CCC(C(=O)c3ccc(F)cc3)CC1)CCS2 | 22.4 µM [rising, single point]
CC(C)C[C@@H]1[C@H](c2ccccc2)OC(=O)N1CCCN1CCCCCC1 | 2.82 µM [falling, partial curve, poor fit]
CCCOC(C(=O)OC1CCN(C)CC1)(c1ccccc1)c1ccccc1 | 35.5 µM [falling, partial curve, poor fit]
C#CC1(O)CC[C@H]2[C@@H]3CCC4=CCCC[C@@H]4[C@H]3CC[C@@]21C (stereo partly drawn) | 35.5 µM [falling, single point]
O=C1NCCN1CCN1CCC(c2cn(-c3ccc(F)cc3)c3ccc(Cl)cc23)CC1 | 10 µM [falling, partial curve, poor fit]
CCCC(=O)O[C@]1(C(=O)CC)CC[C@H]2[C@@H]3CCC4=CC(=O)CC[C@]4(C)[C@H]3[C@@H](O)C[C@@]21C | 15.8 µM [rising, single point]
O=C1CC(c2ccc(Cl)cc2)CC(=O)N1 | 35.5 µM [rising, partial curve, poor fit]
CC(Cc1ccccc1)(NC(=O)CN)c1ccccc1 (stereo not drawn) | 11.2 µM [falling, partial curve, poor fit]
CO[C@@H]1[C@@H](O[C@@H]2O[C@H](C)[C@@H](O[C@H]3C[C@@](C)(O)[C@@H](O)[C@H](C)O3)[C@H](N(C)C)[C@H]2O)[C@@H](CC=O)C[C@@H](C)[C@@H](O[C@@H]2CC[C@H](N(C)C)[C@@H](C)O2)/C=C/C=C/C[C@@H](C)OC(=O)C[C@H]1OC(C)=O | 7.08 µM [falling, full curve, poor fit]
CN(C)CCCN1c2ccccc2CCc2ccccc21 | 22.4 µM [falling, single point]
O=C(O)Cn1cnnn1 | 31.6 µM [rising, single point]
Cc1cc(O)cc2c1O[C@](C)(CCC[C@H](C)CCC[C@H](C)CCCC(C)C)CC2 | 35.5 µM [rising, single point]
Cc1c(C)n(Cc2ccccc2)c2ccc(C(=O)OCCN(C)C)cc12 | 7.94 µM [falling, partial curve, poor fit]
CC(C(O)c1ccccc1)N(C)CCOC(c1ccccc1)c1ccccc1 (stereo not drawn) | 11.2 µM [falling, single point]
O=c1[nH]cnc2nc[nH]c12 | 35.5 µM [rising, single point]
CN(C)CC/C=C1\c2ccccc2Sc2ccc(Cl)cc21 | 10 µM [falling, partial curve, poor fit]
CO/N=C(/C(=O)N[C@@H]1C(=O)N2C(C(=O)OCOC(=O)C(C)(C)C)=C(C)CS[C@H]12)c1csc(N)n1 | 35.5 µM [rising, single point]
CCCCNc1ccc(C(=O)OCCOCCOCCOCCOCCOCCOCCOCCOCCOC)cc1 | 35.5 µM [falling, single point]
Cc1cc(=O)oc2cc(O[C@@H]3SC[C@@H](O)[C@H](O)[C@H]3O)ccc12 | 3.16 µM [falling, full curve]
Cc1onc(-c2c(Cl)cccc2Cl)c1C(=O)Cl | 35.5 µM [rising, single point]
CC(CC1c2ccccc2CCc2ccccc21)CN(C)C (stereo not drawn) | 35.5 µM [falling, single point]
NC(=O)NNc1ccccc1 | 4.47 µM [falling, full curve]
CC(=O)c1ccc2c(c1)N(CCCN1CCC(CCO)CC1)c1ccccc1S2 | 11.2 µM [falling, partial curve, poor fit]
CC(C)CCCC(C)N (stereo not drawn) | 35.5 µM [rising, single point]
O=C(NCCN1CCOCC1)c1ccc(Cl)cc1 | 28.2 µM [rising, partial curve, poor fit]
C[N+](C)(CCOc1ccccc1)Cc1cccs1 | 12.6 µM [rising, partial curve, poor fit]
OC1(c2ccc(Cl)c(C(F)(F)F)c2)CCN(CCCC(c2ccc(F)cc2)c2ccc(F)cc2)CC1 | 3.55 µM [falling, full curve, poor fit]
Cc1c(-c2ccc(O)cc2)n(Cc2ccc(OCCN3CCCCCC3)cc2)c2ccc(O)cc12 | 2.82 µM [falling, partial curve, poor fit]

A section of the results above, as a working copy:
SMILES | AC50
Cc1nc2n(c(=O)c1CCN1CCC(C(=O)c3ccc(F)cc3)CC1)CCS2 | 22.4 µM [rising, single point]
CC(C)C[C@@H]1[C@H](c2ccccc2)OC(=O)N1CCCN1CCCCCC1 | 2.82 µM [falling, partial curve, poor fit]
